Measured values: PMC10759339, “Expression of NELL2/NICOL-ROS1 lumicrine signaling-related molecules in the human male reproductive tract” (Reproductive Biology and Endocrinology : RB&E, 2024)
These are yes or no findings as the source states them, for the method shown. Binding seen in cells or lysates may run through a third protein. Some entries that bind do so weakly or less than the wild type. For part of these data: Tags and fused reporters may be left off the sequences shown.

The chains behind the UniProt entries cited, without tags or fusion partners. Residues count along the entry.
UniProt P02769, residues 25-607: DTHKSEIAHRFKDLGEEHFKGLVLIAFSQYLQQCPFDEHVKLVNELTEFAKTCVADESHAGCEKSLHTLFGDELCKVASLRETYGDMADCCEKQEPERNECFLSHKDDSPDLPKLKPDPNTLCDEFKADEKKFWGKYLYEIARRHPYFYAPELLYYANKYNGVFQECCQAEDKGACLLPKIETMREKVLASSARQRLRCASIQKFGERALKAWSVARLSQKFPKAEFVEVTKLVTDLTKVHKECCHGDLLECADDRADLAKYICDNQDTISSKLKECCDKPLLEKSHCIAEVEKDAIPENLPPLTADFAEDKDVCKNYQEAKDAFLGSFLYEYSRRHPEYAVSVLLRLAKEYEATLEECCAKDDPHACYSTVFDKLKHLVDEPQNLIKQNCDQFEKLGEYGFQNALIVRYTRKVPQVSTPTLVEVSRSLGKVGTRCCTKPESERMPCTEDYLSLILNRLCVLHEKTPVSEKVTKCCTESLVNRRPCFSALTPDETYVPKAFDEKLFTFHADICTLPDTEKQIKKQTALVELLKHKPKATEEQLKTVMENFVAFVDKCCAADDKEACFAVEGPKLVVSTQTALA
UniProt Q99435, residues 22-816: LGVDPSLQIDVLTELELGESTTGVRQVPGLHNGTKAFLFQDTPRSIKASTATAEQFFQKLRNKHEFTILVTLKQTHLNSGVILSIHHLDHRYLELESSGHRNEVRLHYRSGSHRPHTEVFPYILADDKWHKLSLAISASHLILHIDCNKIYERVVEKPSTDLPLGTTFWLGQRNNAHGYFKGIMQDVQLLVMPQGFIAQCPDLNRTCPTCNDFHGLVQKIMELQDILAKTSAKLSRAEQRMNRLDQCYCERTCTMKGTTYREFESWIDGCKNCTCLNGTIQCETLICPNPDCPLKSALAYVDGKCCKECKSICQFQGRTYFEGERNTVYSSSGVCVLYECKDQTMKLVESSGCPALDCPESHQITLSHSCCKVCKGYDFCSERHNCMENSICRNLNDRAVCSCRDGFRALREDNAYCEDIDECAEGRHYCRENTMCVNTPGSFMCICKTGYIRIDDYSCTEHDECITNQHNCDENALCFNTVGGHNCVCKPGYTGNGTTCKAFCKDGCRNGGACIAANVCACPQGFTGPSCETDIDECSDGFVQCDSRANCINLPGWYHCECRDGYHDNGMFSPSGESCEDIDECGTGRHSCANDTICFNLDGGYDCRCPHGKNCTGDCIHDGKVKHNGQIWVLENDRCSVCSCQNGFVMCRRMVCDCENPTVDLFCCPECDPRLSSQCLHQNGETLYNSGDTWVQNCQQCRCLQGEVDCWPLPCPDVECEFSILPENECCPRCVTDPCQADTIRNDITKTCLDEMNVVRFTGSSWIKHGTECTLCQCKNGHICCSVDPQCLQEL
UniProt P08922, residues 28-1859: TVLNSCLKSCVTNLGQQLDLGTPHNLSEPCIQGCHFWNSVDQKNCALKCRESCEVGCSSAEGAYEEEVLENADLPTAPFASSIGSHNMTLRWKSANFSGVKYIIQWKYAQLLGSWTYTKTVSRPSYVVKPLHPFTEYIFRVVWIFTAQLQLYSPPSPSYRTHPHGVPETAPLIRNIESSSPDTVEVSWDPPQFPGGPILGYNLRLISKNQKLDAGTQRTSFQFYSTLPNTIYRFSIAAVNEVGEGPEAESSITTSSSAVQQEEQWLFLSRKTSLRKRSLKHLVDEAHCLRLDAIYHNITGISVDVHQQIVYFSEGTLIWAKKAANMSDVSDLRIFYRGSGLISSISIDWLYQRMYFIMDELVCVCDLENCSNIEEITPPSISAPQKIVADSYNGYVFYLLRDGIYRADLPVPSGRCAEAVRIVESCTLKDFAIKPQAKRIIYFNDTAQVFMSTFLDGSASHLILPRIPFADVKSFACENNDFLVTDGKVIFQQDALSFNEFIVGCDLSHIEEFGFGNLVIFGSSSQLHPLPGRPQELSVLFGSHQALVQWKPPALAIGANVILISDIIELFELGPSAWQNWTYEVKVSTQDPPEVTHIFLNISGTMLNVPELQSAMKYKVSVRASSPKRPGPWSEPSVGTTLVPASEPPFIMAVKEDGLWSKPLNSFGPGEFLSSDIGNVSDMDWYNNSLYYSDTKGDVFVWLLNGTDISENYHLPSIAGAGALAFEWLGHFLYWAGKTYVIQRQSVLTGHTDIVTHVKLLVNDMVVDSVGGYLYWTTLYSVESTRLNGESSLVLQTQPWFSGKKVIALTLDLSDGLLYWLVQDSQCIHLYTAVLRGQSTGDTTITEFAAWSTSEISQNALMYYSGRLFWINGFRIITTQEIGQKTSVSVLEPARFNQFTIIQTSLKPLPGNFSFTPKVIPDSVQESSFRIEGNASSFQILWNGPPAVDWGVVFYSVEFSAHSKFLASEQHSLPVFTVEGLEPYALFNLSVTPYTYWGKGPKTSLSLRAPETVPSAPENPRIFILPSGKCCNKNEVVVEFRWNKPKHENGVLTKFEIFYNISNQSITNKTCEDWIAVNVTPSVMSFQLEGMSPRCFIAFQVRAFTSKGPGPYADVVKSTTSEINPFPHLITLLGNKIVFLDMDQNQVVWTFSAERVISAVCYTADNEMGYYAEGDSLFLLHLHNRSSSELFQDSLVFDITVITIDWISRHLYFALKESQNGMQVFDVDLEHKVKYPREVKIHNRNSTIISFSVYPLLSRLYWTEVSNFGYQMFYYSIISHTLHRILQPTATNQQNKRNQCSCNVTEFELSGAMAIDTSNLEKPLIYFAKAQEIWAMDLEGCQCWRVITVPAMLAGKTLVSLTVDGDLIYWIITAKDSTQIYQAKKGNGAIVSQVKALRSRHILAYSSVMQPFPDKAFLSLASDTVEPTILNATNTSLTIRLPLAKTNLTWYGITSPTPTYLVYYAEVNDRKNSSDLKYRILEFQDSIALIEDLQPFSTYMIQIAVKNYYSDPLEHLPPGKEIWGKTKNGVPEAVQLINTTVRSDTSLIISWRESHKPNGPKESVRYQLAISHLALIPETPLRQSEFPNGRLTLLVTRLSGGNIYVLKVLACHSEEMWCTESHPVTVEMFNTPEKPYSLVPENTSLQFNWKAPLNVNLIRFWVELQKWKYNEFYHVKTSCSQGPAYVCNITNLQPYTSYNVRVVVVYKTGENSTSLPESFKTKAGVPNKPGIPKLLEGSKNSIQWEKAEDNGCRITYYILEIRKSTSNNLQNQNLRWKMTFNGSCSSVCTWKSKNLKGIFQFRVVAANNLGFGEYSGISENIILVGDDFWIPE

Experiments:
Assay in all cases: pull-down; 100 µg of each purified protein conjugated to 25 µL NHS-activated agarose; mixed with lysate (1 mL of 1 mg protein/mL) of 293-F cells expressing ROS1, overnight at 4 °C, washed three times with lysis buffer; immunoblot with anti-Rho1D4; only the target purified
[1] = target: bovine serum albumin (BSA) (bovine) (UniProt P02769)
[2] = target: C-terminally 6×His-tagged recombinant human NELL2 protein (human) (UniProt Q99435)
[3] = target: T1, C-terminally 6×His-tagged human NICOL protein (human) (UniProt Q5BLP8)
T1 sequence: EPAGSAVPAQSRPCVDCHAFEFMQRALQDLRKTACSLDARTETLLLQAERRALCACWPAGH

binding [1]: no binding
binding [2]: binds
binding [3]: no binding
Substance: C-terminally 8xHis and Rho1D4-tagged human ROS1 ectodomain (from UniProt P08922 28-1859) (receptor)
